# Experimental data reported in PubChem BioAssay (EPA / NIEHS).
# By UniProt entry, the sequences of proteins in these tests, tags left out. Where a name states a change or a piece, a line headed by the entry shows the natural chain unless it says otherwise.
# UniProt P04150: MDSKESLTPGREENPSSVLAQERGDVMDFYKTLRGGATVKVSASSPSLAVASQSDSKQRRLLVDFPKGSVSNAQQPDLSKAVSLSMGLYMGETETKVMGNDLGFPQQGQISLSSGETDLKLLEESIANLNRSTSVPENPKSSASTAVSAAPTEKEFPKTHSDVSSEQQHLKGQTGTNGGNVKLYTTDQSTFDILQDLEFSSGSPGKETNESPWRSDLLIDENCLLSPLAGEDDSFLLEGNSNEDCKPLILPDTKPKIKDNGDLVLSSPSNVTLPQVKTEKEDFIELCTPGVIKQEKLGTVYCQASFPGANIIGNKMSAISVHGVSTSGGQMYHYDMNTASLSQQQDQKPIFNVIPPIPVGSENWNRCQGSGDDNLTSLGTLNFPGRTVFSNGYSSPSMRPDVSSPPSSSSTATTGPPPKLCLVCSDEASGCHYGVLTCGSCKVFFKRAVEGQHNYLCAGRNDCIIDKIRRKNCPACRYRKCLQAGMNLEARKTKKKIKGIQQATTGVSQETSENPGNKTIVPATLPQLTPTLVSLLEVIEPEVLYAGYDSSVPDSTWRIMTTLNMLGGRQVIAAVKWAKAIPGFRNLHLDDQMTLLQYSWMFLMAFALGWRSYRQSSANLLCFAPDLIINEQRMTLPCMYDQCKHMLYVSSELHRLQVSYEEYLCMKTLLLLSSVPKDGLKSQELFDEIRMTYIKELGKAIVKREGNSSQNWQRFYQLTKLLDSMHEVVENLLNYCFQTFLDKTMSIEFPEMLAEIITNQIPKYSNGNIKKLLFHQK
# UniProt Q03181: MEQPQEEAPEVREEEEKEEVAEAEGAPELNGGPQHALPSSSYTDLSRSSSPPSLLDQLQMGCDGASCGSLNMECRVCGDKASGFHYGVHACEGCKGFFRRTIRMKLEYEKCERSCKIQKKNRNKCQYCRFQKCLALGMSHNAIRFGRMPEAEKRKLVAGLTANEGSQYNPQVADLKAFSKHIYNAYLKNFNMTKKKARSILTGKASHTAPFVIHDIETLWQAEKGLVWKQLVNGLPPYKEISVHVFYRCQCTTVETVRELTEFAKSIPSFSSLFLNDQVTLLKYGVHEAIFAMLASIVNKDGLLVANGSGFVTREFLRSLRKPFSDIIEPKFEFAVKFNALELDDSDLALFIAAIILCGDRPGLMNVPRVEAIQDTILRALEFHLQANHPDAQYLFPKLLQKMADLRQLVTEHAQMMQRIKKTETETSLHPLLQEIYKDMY
# UniProt O75469: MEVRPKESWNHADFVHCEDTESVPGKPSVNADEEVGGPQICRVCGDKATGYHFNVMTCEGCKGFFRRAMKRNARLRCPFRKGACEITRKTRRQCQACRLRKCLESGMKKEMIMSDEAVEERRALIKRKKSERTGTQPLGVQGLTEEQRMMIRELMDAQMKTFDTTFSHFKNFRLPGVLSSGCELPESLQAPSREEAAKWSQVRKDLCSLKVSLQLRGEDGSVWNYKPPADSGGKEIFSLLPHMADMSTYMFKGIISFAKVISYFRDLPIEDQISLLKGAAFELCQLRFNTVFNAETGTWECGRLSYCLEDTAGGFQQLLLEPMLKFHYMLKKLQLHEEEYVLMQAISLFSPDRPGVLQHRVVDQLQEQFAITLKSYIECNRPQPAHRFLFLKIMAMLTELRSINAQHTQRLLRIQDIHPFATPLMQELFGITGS
# UniProt P04637, whole entry, looked up: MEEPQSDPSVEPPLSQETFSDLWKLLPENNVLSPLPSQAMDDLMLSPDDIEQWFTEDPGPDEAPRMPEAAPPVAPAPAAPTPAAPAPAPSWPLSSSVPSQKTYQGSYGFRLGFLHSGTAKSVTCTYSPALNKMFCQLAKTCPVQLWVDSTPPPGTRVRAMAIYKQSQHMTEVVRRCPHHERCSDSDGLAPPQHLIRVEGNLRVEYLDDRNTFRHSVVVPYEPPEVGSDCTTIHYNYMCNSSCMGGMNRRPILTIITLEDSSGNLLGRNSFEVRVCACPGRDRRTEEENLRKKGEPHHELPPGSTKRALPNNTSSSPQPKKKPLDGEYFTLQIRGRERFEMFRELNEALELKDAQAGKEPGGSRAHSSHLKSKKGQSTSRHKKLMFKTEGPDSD
# UniProt P55055, whole entry, looked up: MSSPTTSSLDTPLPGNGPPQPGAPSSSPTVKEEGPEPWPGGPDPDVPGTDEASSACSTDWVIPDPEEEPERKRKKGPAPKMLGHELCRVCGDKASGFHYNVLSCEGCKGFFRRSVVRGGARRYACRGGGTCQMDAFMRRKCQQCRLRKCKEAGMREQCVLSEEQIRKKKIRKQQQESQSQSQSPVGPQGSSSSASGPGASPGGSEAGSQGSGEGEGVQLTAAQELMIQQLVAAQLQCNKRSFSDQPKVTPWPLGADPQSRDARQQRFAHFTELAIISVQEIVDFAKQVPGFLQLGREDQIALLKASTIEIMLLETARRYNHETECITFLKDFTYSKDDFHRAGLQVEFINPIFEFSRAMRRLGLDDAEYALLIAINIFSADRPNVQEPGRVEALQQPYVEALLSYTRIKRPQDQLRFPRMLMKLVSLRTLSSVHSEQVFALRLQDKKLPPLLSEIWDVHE
# UniProt P37231: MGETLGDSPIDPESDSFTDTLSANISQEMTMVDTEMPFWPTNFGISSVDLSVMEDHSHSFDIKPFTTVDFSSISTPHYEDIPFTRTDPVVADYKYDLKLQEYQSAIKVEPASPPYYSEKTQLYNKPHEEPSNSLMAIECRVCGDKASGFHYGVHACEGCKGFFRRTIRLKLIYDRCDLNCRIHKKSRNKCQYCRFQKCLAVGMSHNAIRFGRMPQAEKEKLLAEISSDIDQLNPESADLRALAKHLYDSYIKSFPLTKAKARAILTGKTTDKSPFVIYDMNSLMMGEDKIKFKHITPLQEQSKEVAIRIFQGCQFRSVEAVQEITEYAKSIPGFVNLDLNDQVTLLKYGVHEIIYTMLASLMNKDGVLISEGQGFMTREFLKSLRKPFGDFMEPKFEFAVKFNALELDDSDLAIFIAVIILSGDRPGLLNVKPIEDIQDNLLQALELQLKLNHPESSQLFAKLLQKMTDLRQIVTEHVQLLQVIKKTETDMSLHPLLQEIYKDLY
# UniProt Q01717: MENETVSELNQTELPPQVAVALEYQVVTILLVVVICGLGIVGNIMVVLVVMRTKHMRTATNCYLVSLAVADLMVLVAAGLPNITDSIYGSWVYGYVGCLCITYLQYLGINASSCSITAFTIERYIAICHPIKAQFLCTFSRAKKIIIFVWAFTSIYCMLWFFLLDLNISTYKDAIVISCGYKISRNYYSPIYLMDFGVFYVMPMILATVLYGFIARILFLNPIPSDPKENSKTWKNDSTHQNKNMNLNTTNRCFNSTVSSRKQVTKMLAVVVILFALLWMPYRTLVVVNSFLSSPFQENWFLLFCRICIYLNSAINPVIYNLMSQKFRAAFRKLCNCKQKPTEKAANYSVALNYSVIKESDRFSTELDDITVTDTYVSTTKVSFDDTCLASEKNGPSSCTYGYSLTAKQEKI
# Where “and” joins values, the source holds several entries; their conditions need not be identical. Equal values may be shown once. Inconclusive means that the source gave no clear call. Such entries were picked first, then a sample of the others. For some of these results: Where the call is inconclusive, the potency comes from a doubtful curve fit. Calls of active or inactive are those of the source. Rule for the calls: active = hit-call score of the fitted dose curve at least 0.9, where 1 is the maximum; inconclusive = response in the unintended direction; inactive = score below 0.9.
# Key:
# [1] = ATG_M_19_TRANS: Attagene TRANS-FACTORIAL HepG2 Assay for M19 Transcription Factor (Internal Marker) (AID 2282974); settings: HepG2 Attagene TRANS-FACTORIAL M19 internal marker reporter
# In short: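 After transfection of HepG2 with GAL4-UAS-driven reporter constructs, cells are dosed for 24 h. Total RNA is reverse-transcribed, reporter sequences PCR-amplified and labelled, then HpaI-digested and sized by capillary electrophoresis.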
# [2] = target: Glucocorticoid receptor (Homo sapiens) (UniProt P04150); experiment: ATG_GR_TRANS: Attagene TRANS-FACTORIAL HepG2 Assay for human Glucocorticoid Receptor (GR) (AID 2282978); settings: HepG2 Attagene TRANS GR reporter, mRNA transcription;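 note: activators score as hits since higher reporter transcript over DMSO is fitted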
# In short: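 Multiplexed TRANS reporter system, HepG2; 24 h exposure; RNA → oligo(dT) RT → reporter-specific PCR → 6-FAM primer extension → HpaI cut → CE fluorescence. Gain-of-signal vs DMSO.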
# [3] = ATG_M_32_TRANS: Attagene TRANS-FACTORIAL HepG2 Assay for M32 Transcription Factor (Internal Marker) (AID 2282984); settings: HepG2 Attagene TRANS M32 internal marker reporter
# In short: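 Internal-marker readout from a multiplexed transcription reporter panel. HepG2 cells were transfected with GAL4-UAS reporter units, treated 24 hours, and reporter transcript levels determined by fluorescence after RT-PCR and capillary separation.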
# [4] = target: human Peroxisome Proliferator-activated Receptor delta (PPARd), PPARD (gene 5467) (UniProt Q03181); experiment: ATG_PPARd_TRANS: Attagene TRANS-FACTORIAL HepG2 Assay for human Peroxisome Proliferator-activated Receptor delta (PPARd) (AID 2283002)
# In short: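 HepG2 cells transiently transfected with GAL4-UAS multiplexed reporter units driven by exogenous chimeric NR-GAL4 proteins; 24 h compound exposure. Reporter mRNA measured by RT-PCR, 6-FAM primer extension, HpaI digestion and capillary electrophoresis; gain of signal fitted relative to DMSO.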
# [5] = target: Nuclear receptor subfamily 1 group I member 2 (Homo sapiens) (UniProt O75469); experiment: ATG_PXR_TRANS: Attagene TRANS-FACTORIAL HepG2 Assay for human Pregnane X Receptor (PXR) (AID 2283008)
# In short: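 HepG2 transfected (FuGene 6) with GAL4-UAS reporter units + PXR-Gal4 chimera; dosed 24 h. Total RNA → oligo(dT) RT → PCR → 6-FAM primer extension → HpaI cut → CE. Gain-of-signal vs DMSO.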
# [6] = target: Cellular tumor antigen p53 (Homo sapiens) (UniProt P04637); experiment: TOX21_p53_BLA_p2_ratio: Tox21 HCT-116 p53 Agonism Beta-lactamase Assay, Ratio, Phase 2 (AID 2283592)
# In short: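 Plated HCT116 p53-bla cells (4000/well) received compound after 5 h, then 16 h at 37C/5% CO2. CCF4-AM added, 2 h RT. Ratio of 460 to 530 nm emission taken as the p53 reporter signal.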
# [7] = target: Cellular tumor antigen p53 (Homo sapiens) (UniProt P04637); experiment: TOX21_p53_BLA_p3_ratio: Tox21 HCT-116 p53 Agonism Beta-lactamase Assay, Ratio, Phase 3 (AID 2283596)
# In short: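 Cells were seeded at 4000/well, rested 5 h at 37C, then dosed with DMSO compound solutions (217-fold dilution) for 16 h. CCF4-AM substrate was loaded for 2 h at room temperature, and the 460/530 nm emission ratio was fitted for gain of signal versus DMSO.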
# [8] = target: Oxysterols receptor LXR-beta (Homo sapiens) (UniProt P55055); experiment: ATG_LXRb_TRANS: Attagene TRANS-FACTORIAL HepG2 Assay for human Liver X Receptor beta (LXRb) (AID 2282981); settings: HepG2 Attagene TRANS GAL4-LXRb reporter, mRNA
# In short: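 Multiplexed reporter assay, HepG2, 24 h dosing. Fluorescence of labelled RT-PCR products after capillary electrophoresis gives transcript level; positive fitting direction relative to DMSO.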
# [9] = ATG_M_06_TRANS: Attagene TRANS-FACTORIAL HepG2 Assay for M06 Transcription Factor (Internal Marker) (AID 2282983); settings: HepG2 Attagene TRANS M06 internal marker reporter;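 for AC50: potency for rise in reporter mRNA above DMSO baseline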
# In short: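 Background control endpoint: reporter mRNA from transiently transfected HepG2 after 24 h dosing, detected by RT-PCR with capillary electrophoresis fluorescence. Analysed for gain versus DMSO.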
# [10] = ACEA_ER_AUC_viability: ACEA Biosciences xCELLigence Real-Time Cell Analysis on Estrogen Receptor Agonism for Viability (AID 2283782);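 note: hit means loss of impedance signal meaning reduced cell growth or viability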
# In short: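 Read-out: real-time electrical impedance (RT-CES) area under curve, loss of signal taken as reduced viability, normalized to DMSO baseline. T-47D cells, charcoal-stripped serum medium, compounds up to 100 uM final, continuous exposure, 80 h.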
# [11] = CCTE_Harrill_HTTr_CellCount_MCF7: CCTE's Cell Proliferation Assessment for the High-Throughput Transcriptomics (HTTr) Platform, Harrill Lab (AID 2284012);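 note: cells exposed to compound for six hours; intended direction is loss of nuclei count meaning fewer cells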
# In short: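 Cell count from high-content imaging of Hoechst-labeled nuclei serves as viability/growth readout. Chemicals were applied to MCF-7 cells in eight concentrations for six hours, with fitting in both directions relative to DMSO.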
# [12] = CCTE_Deisenroth_AIME_384WELL_CTox_Active: Cytotoxicity Assessment (CTOX) in CCTE's 384-well Estrogen Receptor Transactivation Assay with AIME metabolic competence (metabolism positive), Deisenroth Lab (AID 2284037);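 note: chemicals first conditioned 2 h by alginate-bound induced rat liver S9 before cells; activity means signal loss indicating cell death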
# In short: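 Chemicals pre-incubated 2 hours with alginate-immobilised phenobarbital/beta-naphthoflavone-induced male Sprague Dawley rat liver S9, then conditioned medium applied 24 hour to VM7Luc4E2 cells. Viability by fluorogenic protease substrate; 10-point series 0.002 - 200 uM.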
# [13] = target: Cellular tumor antigen p53 (Homo sapiens) (UniProt P04637); experiment: TOX21_p53_BLA_p4_ratio: Tox21 HCT-116 p53 Agonism Beta-lactamase Assay, Ratio, Phase 4 (AID 2283601)
# In short: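 HCT-116 p53 beta-lactamase reporter cells (4000/well) preincubated 5 h, then compound (217-fold dilution of DMSO stock) for 16 h at 37C. CCF4-AM substrate added 2 h at room temperature; 460/530 nm emission ratio fitted upward versus DMSO.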
# [14] = target: Peroxisome proliferator-activated receptor gamma (Homo sapiens) (UniProt P37231); experiment: ATG_PPARg_TRANS: Attagene TRANS-FACTORIAL HepG2 Assay for human Peroxisome Proliferator-activated Receptor-gamma (PPARg) (AID 2283007)
# In short: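 Human hepatoma HepG2, transient MRTU transfection, 24 h treatment. mRNA reporter signal by RT-PCR plus capillary electrophoresis, fluorescence detection; fitted for increase over DMSO negative control.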
# [15] = TOX21_p53_BLA_p5_viability: Viability Assessment in the Tox21 HCT-116 p53 Agonism Beta-lactamase Assay, Phase 5 (AID 2283600)
# In short: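 Workflow: seed 4000 cells per well, wait 5 h, add compounds (DMSO, 217-fold dilution), incubate 16 h, load CCF4-AM 2 h, add CellTiter-Glo, read luminescence after 30 min.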
# [16] = target: rat Thyrotropin Releasing Hormone Receptor (TRH), Trhr (gene 25570) (UniProt Q01717); experiment: NVS_GPCR_rTRH: NovaScreen (NVS) G Protein-Coupled Receptor Assay for rat Thyrotropin Releasing Hormone Receptor (TRH) (AID 2283329);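 note: hit means lower bound tracer signal versus DMSO baseline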
# In short: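 Rat forebrain membranes; radioligand displacement at TRH receptor by filter-based scintillation counting, read 4 h after dosing. Duplicate single-point screen at 25 uM, actives rerun in concentration series; loss of signal relative to DMSO.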
# [17] = ACEA_AR_agonist_AUC_viability: ACEA Biosciences xCELLigence Real-Time Cell Analysis on Androgen Receptor Agonism for Viability (AID 2283775)
# In short: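 22Rv1 cells; impedance growth kinetics; 8-pt 1:4 dilutions from 100 uM top final, ≤0.5% DMSO; n = 2; 80 h read; AUC viability, loss-of-signal vs DMSO.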
smiles,measurement,setting,value
COS(=O)(=O)c1ccc(C)cc1,outcome,[1],inactive
same,outcome,[2],inactive
same,AC50,[8],inconclusive: 100 µM
same,AC50,[9],inconclusive: 100 µM
CN(C)C(=S)S,outcome,[1],inactive
same,outcome,[8],inactive
same,outcome,[9],inactive
same,AC50,[10],inconclusive: 2.05 µM
same,AC50,[11],inconclusive: 50 µM
same,AC50,[12],inconclusive: 0.224 nM
CCNc1nc(NCC)nc(SC)n1,AC50,[1],inconclusive: 183 µM
same,AC50,[8],inconclusive: 21.4 µM
same,outcome,[6],inactive
same,AC50,[13],inconclusive: 46.1 µM
C#CC1(O)CCCCC1,AC50,[1],inconclusive: 100 µM
same,outcome,[9],inactive
same,AC50,[14],inconclusive: 100 µM
same,AC50,[5],inconclusive: 100 µM
same,AC50,[15],inconclusive: 46.1 µM
same,AC50,[10],active: 61.7 µM
Oc1ccc(C2(c3ccc(O)cc3)c3ccccc3-c3ccccc32)cc1,AC50,[1],inconclusive: 17.9 µM
same,outcome,[2],inactive
same,AC50,[8],inconclusive: 11.1 µM
same,outcome,[9],inactive
same,AC50,[4],inconclusive: 2.98 µM
same,AC50,[5],active: 0.384 µM
same,AC50,[6],active: 0.265 µM
same,AC50,[7],active: 906 nM
same,AC50,[15],active: 74 µM
same,AC50,[13],active: 67.8 µM
BrCCBr,outcome,[1],inactive
same,AC50,[9],inconclusive: 101 µM
same,AC50,[3],inconclusive: 101 µM
same,AC50,[16],inconclusive: 6.6 µM
same,AC50,[6],inconclusive: 45.1 µM
same,outcome,[6],inactive
same,AC50,[7],inconclusive: 45100 nM
same,AC50,[13],inconclusive: 46.5 µM
same,outcome,[10],inactive
same,AC50,[11],inconclusive: 50 µM
CC(=O)c1ccc(-c2ccccc2)cc1,AC50,[1],inconclusive: 100 µM
same,AC50,[5],active: 24.7 µM
same,AC50,[10],inconclusive: 0.355 µM
COP(=S)(OC)SCN1C(=O)c2ccccc2C1=O,outcome,[1],inactive
same,AC50,[8],inconclusive: 1.9 µM
same,outcome,[4],inactive
same,outcome,[5],inactive
same,AC50,[15],inconclusive: 46.1 µM and inconclusive: 46.4 µM
same,outcome,[15],inactive
same,outcome,[13],inactive
COc1ccccc1N,outcome,[1],inactive
same,AC50,[8],inconclusive: 100 µM and inconclusive: 101 µM
same,AC50,[9],inconclusive: 100 µM
same,AC50,[14],inconclusive: 0.0823 µM
same,outcome,[16],inactive
same,outcome,[17],inactive
same,AC50,[10],inconclusive: 93.6 µM
same,outcome,[10],inactive
same,outcome,[11],inactive
same,AC50,[12],inconclusive: 0.443 nM

# A stretch taken from the entries so far, as a working copy:
smiles,measurement,setting,value
C#CC1(O)CCCCC1,AC50,[15],inconclusive: 46.1 µM
same,AC50,[10],active: 61.7 µM
Oc1ccc(C2(c3ccc(O)cc3)c3ccccc3-c3ccccc32)cc1,AC50,[1],inconclusive: 17.9 µM
same,outcome,[2],inactive
same,AC50,[8],inconclusive: 11.1 µM
same,outcome,[9],inactive
same,AC50,[4],inconclusive: 2.98 µM
same,AC50,[5],active: 0.384 µM
same,AC50,[6],active: 0.265 µM
same,AC50,[7],active: 906 nM
same,AC50,[15],active: 74 µM
